The results in this text go back to patent publication US10695360B2, “Adiponectin secretion enhancer” (WASHINGTON UNIVERSITY, priority 2017, dated 2020).

This data set concerns ANKO mice (adipose tissue-specific NAMPT knockout mice). As to the kind of experiment: NAD+ precursor rescue experiments in ANKO mice (Example 5). The format is in vivo, mouse. The note with it: NMN-treated ANKO mice, 500 mg/kg body weight/day, 4 to 6 weeks; mean ±SE. The source says:
To determine whether metabolic derangements depend on the defects in NAD+ biosynthesis in ANKO mice, we treated mice with NMN, a key NAD+ intermediate and the product of the NAMPT reaction (FIG. 6A). In the diagram, “NA” represents nicotinic acid, “NaMN” represents nicotinic acid mononucleotide, “NIC” represents nicotinamide, “NR” represents nicotinamide riboside, “Tip” represents tryptophan, and “NAPRT” represents nicotinate phosphoribosyl transferase. NMN is a product of an enzyme reaction mediated by NAMPT and is converted directly to NAD+. Nicotinic acid is a precursor in the NAPRT-dependent NAD+ biosynthesis pathway.
ANKO mice were generated by using adiponectin-Cre transgenic mice and floxed-Nampt mice as previously described (Noon et al., 2015). Mice were maintained on a standard chow diet (LabDiet 5053; LabDiet) ad libitum. For RSG rescue experiments, ANKO mice received a chow containing RSG (#71740; Cayman Chemical) at the approximate dose of 20 mg/kg body Weight/day soon after weaning for up to 7 weeks. For NAD+ precursor rescue experiments, we administered NMN (#44500900; Oriental Yeast) and NA (#72309; Sigma-Aldrich) in drinking water, at the approximate dose of 500 mg/kg of body weight, to ANKO mice soon after weaning for up to 2 months.
More specifically, drinking water containing NMN (500 mg/kg body weight/day) was administered to the female ANKO mice and metabolic parameters were investigated after administering NMN for 4 to 6 weeks. […]
FIG. 6B indicates the results of measuring […] levels in adipose tissue for female ANKO mice administered NMN for 4 to 6 weeks (500 mg/kg body weight day) and non-dosed female ANKO mice of the same age (per group, n=5 to 7). NAD+ levels were measured with an HPLC (high-performance liquid chromatography) system using a Supelco LC-18-T column (#58970-U, Sigma-Aldrich Corp.) (Yoon, et al., Cell Metabolism, 2015, Vol. 21, p. 706-717). […]

Turning to `NC(=O)c1ccc[n+]([C@@H]2O[C@H](COP(=O)([O-])O)C(O)[C@H]2O)c1` (stereo partly drawn) [β-NMN, Nicotinamide mononucleotide], the body temperature is on record as 36.7±0.3 _C, the body weight was determined as 18.0 ± 0.5 g and the daily food intake is 0.21±0.01 g/g of body weight.
